From PMC4200280

By UniProt entry, the sequences of proteins in these tests, tags left out. Where a name states a change or a piece, a line headed by the entry shows the natural chain unless it says otherwise.
UniProt P36012: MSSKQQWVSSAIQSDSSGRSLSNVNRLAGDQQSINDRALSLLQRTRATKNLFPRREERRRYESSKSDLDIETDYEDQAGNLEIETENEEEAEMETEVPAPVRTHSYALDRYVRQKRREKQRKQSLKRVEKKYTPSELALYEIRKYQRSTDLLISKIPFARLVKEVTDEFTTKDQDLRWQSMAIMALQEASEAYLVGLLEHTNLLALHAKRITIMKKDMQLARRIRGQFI
UniProt Q12161: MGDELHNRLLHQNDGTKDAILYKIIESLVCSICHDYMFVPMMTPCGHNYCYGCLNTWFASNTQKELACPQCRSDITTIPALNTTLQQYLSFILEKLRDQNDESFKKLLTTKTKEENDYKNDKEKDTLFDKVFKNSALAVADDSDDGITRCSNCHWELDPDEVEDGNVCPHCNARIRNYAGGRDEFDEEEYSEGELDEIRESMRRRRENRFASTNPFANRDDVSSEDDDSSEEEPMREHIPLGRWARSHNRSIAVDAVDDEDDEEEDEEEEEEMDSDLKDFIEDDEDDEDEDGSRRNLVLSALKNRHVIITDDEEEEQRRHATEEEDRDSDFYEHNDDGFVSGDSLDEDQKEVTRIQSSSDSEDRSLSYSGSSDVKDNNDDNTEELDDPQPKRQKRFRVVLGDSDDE

Biological target: Cse4 (overexpressed from the GAL promoter on a 2-μm plasmid) (budding yeast) (UniProt P36012)
Experiment: co-IP; cell lysates of strains overexpressing Cse4 from the GAL promoter; IP with anti-Cse4 antibody, Psh1-HA detected; control IP without antibody

binding: binds
Substance: Psh1-S6D-HA (from UniProt Q12161) (enzyme)

Results are given in words; binding and its absence hold for the method and conditions named. Binding seen in cells or lysates may run through a third protein. Binding can be weak; no strength is given.
